In PMC3887101:
Results are given in words; binding and its absence hold for the method and conditions named. In cells and extracts the contact can be indirect. Some results given as binding are weak or reduced against the parent protein; the word gives no strength. Tags and fused reporters may be left off the sequences shown.

By UniProt entry, the sequences of proteins in these tests, tags left out.
UniProt P0A7Z4: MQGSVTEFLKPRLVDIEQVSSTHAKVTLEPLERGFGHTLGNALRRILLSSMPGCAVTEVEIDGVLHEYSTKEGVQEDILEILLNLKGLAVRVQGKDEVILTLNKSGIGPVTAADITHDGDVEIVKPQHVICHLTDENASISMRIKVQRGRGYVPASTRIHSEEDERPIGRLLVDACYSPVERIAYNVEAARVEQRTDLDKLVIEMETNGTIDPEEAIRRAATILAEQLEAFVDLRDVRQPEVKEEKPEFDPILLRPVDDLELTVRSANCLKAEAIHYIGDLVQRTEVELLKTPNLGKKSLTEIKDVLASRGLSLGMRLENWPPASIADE
UniProt P13445: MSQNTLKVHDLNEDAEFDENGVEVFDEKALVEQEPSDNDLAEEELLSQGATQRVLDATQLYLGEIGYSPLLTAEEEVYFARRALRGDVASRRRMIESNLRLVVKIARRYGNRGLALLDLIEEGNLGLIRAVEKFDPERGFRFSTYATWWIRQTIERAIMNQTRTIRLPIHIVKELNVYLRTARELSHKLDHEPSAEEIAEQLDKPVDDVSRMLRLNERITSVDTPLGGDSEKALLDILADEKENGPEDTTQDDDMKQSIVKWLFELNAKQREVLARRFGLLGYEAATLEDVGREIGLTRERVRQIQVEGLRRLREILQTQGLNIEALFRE

Target: T1, His-tagged nitrite-sensitive repressor NsrR (UniProt P0AF63)
T1 sequence: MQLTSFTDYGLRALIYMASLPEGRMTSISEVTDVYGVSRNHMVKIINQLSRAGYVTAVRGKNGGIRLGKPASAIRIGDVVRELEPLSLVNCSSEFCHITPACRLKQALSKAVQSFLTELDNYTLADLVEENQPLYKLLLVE
Test: pull-down

Substance	binding
HA-tagged RNA polymerase subunit alpha (RpoA) (from UniProt P0A7Z4 1-329)	binds
HA-tagged RNA polymerase subunit sigma 38 (RpoS) (from UniProt P13445 1-330)	binds
